# Test results reported in article PMC4632003.
# Results are given in words; binding and its absence hold for the method and conditions named. For some of these results: Binding seen in cells or lysates may run through a third protein. Some entries that bind do so weakly or less than the wild type. For some of these results: Where a sequence is shown, tags or fusion partners need not be part of it.
# T1: GST-tagged Sam50 (human) (UniProt Q9Y512)
# T1 sequence: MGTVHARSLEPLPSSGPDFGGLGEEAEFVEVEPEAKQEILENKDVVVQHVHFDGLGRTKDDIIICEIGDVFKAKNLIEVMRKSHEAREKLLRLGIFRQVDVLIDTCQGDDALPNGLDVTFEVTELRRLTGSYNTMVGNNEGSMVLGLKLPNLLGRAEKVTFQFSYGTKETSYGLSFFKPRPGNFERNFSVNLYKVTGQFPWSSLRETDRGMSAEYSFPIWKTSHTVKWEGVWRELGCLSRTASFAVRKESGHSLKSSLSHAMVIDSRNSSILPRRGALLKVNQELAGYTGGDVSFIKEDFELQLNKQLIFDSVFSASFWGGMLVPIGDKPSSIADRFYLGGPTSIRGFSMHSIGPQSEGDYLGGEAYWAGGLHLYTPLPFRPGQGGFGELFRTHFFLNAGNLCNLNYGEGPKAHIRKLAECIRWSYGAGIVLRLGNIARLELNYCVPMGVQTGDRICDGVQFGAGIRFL
# T2: CHCHD6 (human (endogenous in HeLa)) (UniProt Q9BRQ6)
# T2 sequence: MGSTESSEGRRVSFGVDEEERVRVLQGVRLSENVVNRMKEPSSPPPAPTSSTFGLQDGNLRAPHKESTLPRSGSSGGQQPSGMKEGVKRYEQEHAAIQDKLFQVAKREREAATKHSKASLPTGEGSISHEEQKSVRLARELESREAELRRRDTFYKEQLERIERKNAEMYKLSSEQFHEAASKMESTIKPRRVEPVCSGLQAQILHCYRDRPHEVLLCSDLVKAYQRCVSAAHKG
# T3: Mitofilin (human (endogenous in HeLa)) (UniProt Q16891)
# T3 sequence: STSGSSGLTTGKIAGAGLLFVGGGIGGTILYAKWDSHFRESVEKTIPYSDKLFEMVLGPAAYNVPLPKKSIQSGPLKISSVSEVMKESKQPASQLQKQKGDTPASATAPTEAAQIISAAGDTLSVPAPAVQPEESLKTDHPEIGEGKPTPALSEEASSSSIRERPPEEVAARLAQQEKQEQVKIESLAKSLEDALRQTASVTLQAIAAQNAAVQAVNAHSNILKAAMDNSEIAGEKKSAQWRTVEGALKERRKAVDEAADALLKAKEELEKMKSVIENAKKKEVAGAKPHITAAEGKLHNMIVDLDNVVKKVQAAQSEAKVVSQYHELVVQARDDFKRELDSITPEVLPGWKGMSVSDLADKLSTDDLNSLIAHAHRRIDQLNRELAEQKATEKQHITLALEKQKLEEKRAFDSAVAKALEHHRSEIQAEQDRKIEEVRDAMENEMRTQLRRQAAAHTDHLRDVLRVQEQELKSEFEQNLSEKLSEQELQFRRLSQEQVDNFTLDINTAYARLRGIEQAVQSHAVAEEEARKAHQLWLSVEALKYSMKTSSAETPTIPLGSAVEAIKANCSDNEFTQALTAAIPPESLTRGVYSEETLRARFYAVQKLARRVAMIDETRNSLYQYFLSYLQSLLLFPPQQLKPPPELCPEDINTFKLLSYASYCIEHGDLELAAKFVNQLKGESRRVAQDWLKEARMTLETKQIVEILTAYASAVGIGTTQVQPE
# Key:
# GST-tagged Sam50 (human) = molecular target: T1, GST-tagged Sam50 (human); assay: pull-down; GST pull-down: 10 μg purified GST-tagged protein, 10 μg His-tagged protein and glutathione Sepharose 4B in 1 ml PBS with protease inhibitor, overnight at 4 °C, washed five times with cold PBS; Western blot; both purified
# [1] = molecular target: T2, CHCHD6 (human (endogenous in HeLa)); assay: co-IP; IP of endogenous Mitofilin or CHCHD6 from HeLa lysate (control cells; Mitofilin IP also from CHCHD6-knockout cells) with antibody crosslinked to protein A Sepharose beads, overnight at 4 °C, washed with cold PBS; immunoblot
# [2] = molecular target: T3, Mitofilin (human (endogenous in HeLa)); assay: as above
binding (GST-tagged Sam50 (human)),binding [1],binding [2],Binder
no binding,,,"His-tagged CHCHD6 CΔ46 variant (domain or fragment, UniProt Q9BRQ6 1-189) MGSTESSEGRRVSFGVDEEERVRVLQGVRLSENVVNRMKEPSSPPPAPTSSTFGLQDGNLRAPHKESTLPRSGSSGGQQPSGMKEGVKRYEQEHAAIQDKLFQVAKREREAATKHSKASLPTGEGSISHEEQKSVRLARELESREAELRRRDTFYKEQLERIERKNAEMYKLSSEQFHEAASKMESTIK"
,binds,binds,"Sam50 (protein, UniProt Q9Y512 1-469) MGTVHARSLEPLPSSGPDFGGLGEEAEFVEVEPEAKQEILENKDVVVQHVHFDGLGRTKDDIIICEIGDVFKAKNLIEVMRKSHEAREKLLRLGIFRQVDVLIDTCQGDDALPNGLDVTFEVTELRRLTGSYNTMVGNNEGSMVLGLKLPNLLGRAEKVTFQFSYGTKETSYGLSFFKPRPGNFERNFSVNLYKVTGQFPWSSLRETDRGMSAEYSFPIWKTSHTVKWEGVWRELGCLSRTASFAVRKESGHSLKSSLSHAMVIDSRNSSILPRRGALLKVNQELAGYTGGDVSFIKEDFELQLNKQLIFDSVFSASFWGGMLVPIGDKPSSIADRFYLGGPTSIRGFSMHSIGPQSEGDYLGGEAYWAGGLHLYTPLPFRPGQGGFGELFRTHFFLNAGNLCNLNYGEGPKAHIRKLAECIRWSYGAGIVLRLGNIARLELNYCVPMGVQTGDRICDGVQFGAGIRFL"
,,binds,"Tim23 (protein, UniProt O14925 1-209) MEGGGGSGNKTTGGLAGFFGAGGAGYSHADLAGVPLTGMNPLSPYLNVDPRYLVQDTDEFILPTGANKTRGRFELAFFTIGGCCMTGAAFGAMNGLRLGLKETQNMAWSKPRNVQILNMVTRQGALWANTLGSLALLYSAFGVIIEKTRGAEDDLNTVAAGTMTGMLYKCTGGLRGIARGGLTGLTLTSLYALYNNWEHMKGSLLQQSL"
